Assay results taken from paper PMC5470003.
These are yes or no findings as the source states them, for the method shown. Binding seen in cells or lysates may run through a third protein. Some binding calls cover weakened binding; strength is not graded here.

The chains behind the UniProt entries cited, without tags or fusion partners.
UniProt P19091: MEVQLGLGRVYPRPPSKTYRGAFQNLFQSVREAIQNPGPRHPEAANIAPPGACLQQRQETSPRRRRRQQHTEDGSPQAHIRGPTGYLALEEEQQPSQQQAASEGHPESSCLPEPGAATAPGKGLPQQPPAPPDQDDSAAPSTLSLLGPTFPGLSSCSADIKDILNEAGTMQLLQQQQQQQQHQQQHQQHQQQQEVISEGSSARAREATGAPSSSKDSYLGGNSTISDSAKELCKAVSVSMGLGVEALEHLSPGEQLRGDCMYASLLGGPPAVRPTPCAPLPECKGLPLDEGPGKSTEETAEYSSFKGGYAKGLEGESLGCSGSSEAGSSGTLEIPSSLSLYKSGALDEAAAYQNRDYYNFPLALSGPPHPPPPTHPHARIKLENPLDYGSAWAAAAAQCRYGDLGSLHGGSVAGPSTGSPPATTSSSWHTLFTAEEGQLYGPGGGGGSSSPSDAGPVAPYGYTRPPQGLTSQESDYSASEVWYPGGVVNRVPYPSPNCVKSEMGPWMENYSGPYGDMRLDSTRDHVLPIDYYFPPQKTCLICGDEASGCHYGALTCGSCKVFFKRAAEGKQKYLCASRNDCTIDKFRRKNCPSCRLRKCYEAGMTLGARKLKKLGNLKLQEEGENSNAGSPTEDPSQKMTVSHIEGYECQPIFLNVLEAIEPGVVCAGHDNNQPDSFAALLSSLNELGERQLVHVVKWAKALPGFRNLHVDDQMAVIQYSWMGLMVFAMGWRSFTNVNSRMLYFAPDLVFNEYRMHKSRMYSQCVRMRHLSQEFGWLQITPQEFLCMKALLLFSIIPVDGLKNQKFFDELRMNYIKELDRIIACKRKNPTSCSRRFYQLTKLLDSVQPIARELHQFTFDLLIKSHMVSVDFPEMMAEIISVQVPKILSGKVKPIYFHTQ

B1: caveolin-1 (protein, UniProt P49817-1 1-178)
chain: MSGGKYVDSEGHLYTVPIREQGNIYKPNNKAMADEVTEKQVYDAHTKEIDLVNRDPKHLNDDVVKIDFEDVIAEPEGTHSFDGIWKASFTTFTVTKYWFYRLLSTIFGIPMALIWGIYFAILSFLHIWAVVPCIKSFLIEIQCISRVYSIYVHTFCDPLFEAIGKIFSNIRISTQKEI

Columns and labels:
[1] = biological target: T1, caveolin-1 (mouse (endogenous in TM4)) (UniProt P49817); assay: co-IP; membrane fraction proteins of TM4 cells treated with vehicle (basal) or 10 nM testosterone for 30 min; immunoprecipitated with anti-caveolin-1 or anti-AR antibody, protein G Dynabeads, Western blot
T1 sequence: B1 chain

[2] = biological target: androgen receptor (mouse (endogenous in TM4)) (UniProt P19091); assay: as above

| Molecule | binding [1] | binding [2] |
| --- | --- | --- |
| androgen receptor (from UniProt P19091 1-899) | binds | – |
| B1 | – | binds |
